8 substances from patent publication US5770178A, “Metal chelate forming peptides and use thereof” (Nihon Medi-Physics Co., Ltd., priority 1994, dated 1998) can be followed below.

This series is described as follows: Radiolabeling rate with Tc-99m at room temperature (HPLC), index of metal chelating ability. The class given is physicochemical. The conditions noted are these: room temperature 60 min.
[1] abbreviates: Concentration of Sample 5 μg/ml.
Setting [2] is: Concentration of Sample 10 μg/ml.
The mark [3] stands for this setting: Concentration of Sample 25 μg/ml.
[4] abbreviates: Concentration of Sample 50 μg/ml.
The mark [5] stands for this setting: Concentration of Sample 100 μg/ml.

As to YYCAREPPTRTFAYWGQG, the “Radiolabeling rate (%) with Tc-99m” value runs as follows: under setting [1], 29.2 ± 17.2%; under setting [2], 79.4 ± 1.71%; under setting [3], 93.4 ± 2.51%; under setting [4], 97.9 ± 0.57%; under setting [5], 99.4 ± 0.39%.

For the substance KPCAREPPTRTFAYWGQG, the “Radiolabeling rate (%) with Tc-99m” value is, setting by setting: under setting [4], 51.0 ± 0.13%; under setting [5], 53.6 ± 0.81%.

For the substance “D-KYCAREPPTRTFAYWG-D-QG (D-amino acids; C-terminal D-QG)”, the “Radiolabeling rate (%) with Tc-99m” value under setting [1] worked out at 10.5 ± 0.43%, the “Radiolabeling rate (%) with Tc-99m” value under setting [3] turned out to be 97.7 ± 0.33% and the “Radiolabeling rate (%) with Tc-99m” value under setting [5] was 99.8 ± 0.11%.

With D-KPCAREPPTRTFAYWGQG (D-amino acid), the “Radiolabeling rate (%) with Tc-99m” value stood at 67.1 ± 0.06% under setting [4] and 69.1 ± 1.86% under setting [5].

Consider KYCAREPPTRTFAYWGQG, for which the “Radiolabeling rate (%) with Tc-99m” value came to 39.1 ± 1.59% under setting [1]; 79.6 ± 6.62% under setting [2]; 92.2 ± 1.39% under setting [3]; 96.4 ± 0.32% under setting [4]; 97.8 ± 0.69% under setting [5].

Consider DYCAREPPTRTFAYWGQG, for which the “Radiolabeling rate (%) with Tc-99m” value worked out at 28.7 ± 6.34% under setting [1]; 88.9 ± 2.82% under setting [2]; 90.6 ± 1.95% under setting [3]; 98.1 ± 0.45% under setting [4]; 100 ± 0.00% under setting [5].

On to KGCAREPPTRTFAYWGQG, for which the “Radiolabeling rate (%) with Tc-99m” value is, setting by setting: under setting [3], 91.9 ± 4.73%; under setting [4], 93.2 ± 1.77%; under setting [5], 98.2 ± 0.11%.

As for YKCAREPPTRTFAYWGQG, the “Radiolabeling rate (%) with Tc-99m” value by setting is: under setting [3], 96.9%; under setting [4], 97.6%; under setting [5], 98.1%.
